PubChem BioAssay AID1259254 – NCATS – 2017
Assay: 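Finding genes that stop cells copying their DNA twice in one cycle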 (primary screen). System: human HCT116 colorectal cancer cells. Reagents: single siRNA against human genes. Timing: 3 days. Detection: 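Nuclei stained with Hoechst and imaged; cell-cycle phase assigned by DNA content; G2 share scaled per plate, non-targeting siRNA 0%, GMNN siRNA 100%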. Direction: G2 robust z-score and G2 cells, % of GMNN control: higher = more G2 cells, more excess DNA replication; raw share of cells in G2: higher = larger share of cells with G2 DNA content. Hit rule: 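Active siRNAs have a G2 robust z of 5 or more median absolute deviations over the median, which in these data means about 38% or higher of GMNN control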.
Here is a random part of about 59,000 deposited reagents. About 1,550 of all reagents (2.6%) were called active. 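G2 share is only a proxy for re-replication; each gene was hit by three separate siRNAs, and active genes were retested.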 Raw values are not corrected between plates. A number with no mark means an inactive call. Reagents against one gene are numbered here. No sequences are given here. Not stated in the record: the amount of reagent.

| target gene | siRNA no. | G2 robust z-score | G2 cells, % of GMNN control | raw share of cells in G2 (%) |
| --- | --- | --- | --- | --- |
| PAQR5 (GeneID 54852) | 1 | 1.07 | 10.5 | 8.11 |
| PAQR5 (GeneID 54852) | 2 | 1.15 | 11 | 11 |
| PAQR5 (GeneID 54852) | 3 | -0.242 | 1.26 | 4.28 |
| NEO1 (GeneID 4756) | 1 | 0.0279 | 3.16 | 6.72 |
| NEO1 (GeneID 4756) | 2 | -0.267 | 1.09 | 3.55 |
| NEO1 (GeneID 4756) | 3 | -1.2 | -5.5 | 3.23 |
| LZIC (GeneID 84328) | 1 | 5.48 (active) | 41.5 | 17.9 |
| LZIC (GeneID 84328) | 2 | 1.06 | 10.4 | 6.54 |
| LZIC (GeneID 84328) | 3 | -0.423 | -0.00575 | 2.4 |
| RBM19 (GeneID 9904) | 1 | 3.73 | 29.2 | 16.2 |
| RBM19 (GeneID 9904) | 2 | 1.85 | 16 | 11.2 |
| RBM19 (GeneID 9904) | 3 | 0.349 | 5.42 | 5.05 |
| MTURN (GeneID 222166) | 1 | -0.059 | 2.55 | 4.5 |
| MTURN (GeneID 222166) | 2 | 0.455 | 6.17 | 5.24 |
| MTURN (GeneID 222166) | 3 | 0.00867 | 3.03 | 4.16 |
| SIPA1 (GeneID 6494) | 1 | 0.217 | 4.49 | 6.09 |
| SIPA1 (GeneID 6494) | 2 | 1.29 | 12.1 | 9.75 |
| SIPA1 (GeneID 6494) | 3 | 3.82 | 29.9 | 13.8 |
| CRYGB (GeneID 1419) | 1 | -0.241 | 1.27 | 5.9 |
| CRYGB (GeneID 1419) | 2 | 0.815 | 8.7 | 7.28 |
| CRYGB (GeneID 1419) | 3 | -0.284 | 0.971 | 3.9 |
| PACC1 (GeneID 55248) | 1 | -1.33 | -6.4 | 2.07 |
| PACC1 (GeneID 55248) | 2 | -0.346 | 0.531 | 4.36 |
| PACC1 (GeneID 55248) | 3 | -0.135 | 2.02 | 3.78 |
| RIT1 (GeneID 6016) | 1 | -0.181 | 1.7 | 5.56 |
| RIT1 (GeneID 6016) | 2 | 1.27 | 11.9 | 9.21 |
| RIT1 (GeneID 6016) | 3 | 0.617 | 7.31 | 6.57 |
| ZNF493 (GeneID 284443) | 1 | -0.376 | 0.323 | 3.2 |
| ZNF493 (GeneID 284443) | 2 | -0.105 | 2.23 | 3.94 |
| ZNF493 (GeneID 284443) | 3 | -0.994 | -4.03 | 2.11 |
| WBP2P1 (GeneID 147468) | 1 | 0.372 | 5.59 | 5.7 |
| WBP2P1 (GeneID 147468) | 2 | -0.599 | -1.25 | 2.53 |
| WBP2P1 (GeneID 147468) | 3 | -1.22 | -5.61 | 1.11 |
| PTCHD1 (GeneID 139411) | 1 | 0.319 | 5.21 | 6.14 |
| PTCHD1 (GeneID 139411) | 2 | 1.78 | 15.5 | 8.02 |
| PTCHD1 (GeneID 139411) | 3 | -0.475 | -0.375 | 2.44 |
| TLR8 (GeneID 51311) | 1 | 3.35 | 26.5 | 18 |
| TLR8 (GeneID 51311) | 2 | -0.318 | 0.729 | 4.51 |
| TLR8 (GeneID 51311) | 3 | -0.935 | -3.61 | 2.42 |

Entries listed so far whose gene name begins with C or c:
| target gene | siRNA no. | G2 robust z-score | G2 cells, % of GMNN control | raw share of cells in G2 (%) |
| --- | --- | --- | --- | --- |
| CRYGB (GeneID 1419) | 1 | -0.241 | 1.27 | 5.9 |
| CRYGB (GeneID 1419) | 2 | 0.815 | 8.7 | 7.28 |
| CRYGB (GeneID 1419) | 3 | -0.284 | 0.971 | 3.9 |

Continued:
| target gene | siRNA no. | G2 robust z-score | G2 cells, % of GMNN control | raw share of cells in G2 (%) |
| --- | --- | --- | --- | --- |
| H2BW2 (GeneID 286436) | 1 | 0.83 | 8.81 | 6.85 |
| H2BW2 (GeneID 286436) | 2 | 0.773 | 8.41 | 6.3 |
| H2BW2 (GeneID 286436) | 3 | 0.419 | 5.92 | 5.07 |
| MAP1LC3BP1 (GeneID 392288) | 1 | -0.597 | -1.23 | 4.28 |
| MAP1LC3BP1 (GeneID 392288) | 2 | -0.186 | 1.66 | 4.41 |
| MAP1LC3BP1 (GeneID 392288) | 3 | 0.556 | 6.88 | 6.25 |
| MCM4 (GeneID 4173) | 1 | 1.2 | 11.4 | 9.99 |
| MCM4 (GeneID 4173) | 2 | -0.855 | -3.05 | 2.19 |
| MCM4 (GeneID 4173) | 3 | -1.04 | -4.32 | 3.69 |
| KAT2B (GeneID 8850) | 1 | -0.136 | 2.01 | 5.43 |
| KAT2B (GeneID 8850) | 2 | 2.75 | 22.3 | 13.1 |
| KAT2B (GeneID 8850) | 3 | -0.455 | -0.231 | 4.43 |
| DCAF8L1 (GeneID 139425) | 1 | -0.205 | 1.52 | 4.75 |
| DCAF8L1 (GeneID 139425) | 2 | 0.794 | 8.55 | 5.81 |
| DCAF8L1 (GeneID 139425) | 3 | 0.75 | 8.24 | 5.57 |
| GABRD (GeneID 2563) | 1 | -0.737 | -2.22 | 4.48 |
| GABRD (GeneID 2563) | 2 | -0.563 | -0.992 | 4.45 |
| GABRD (GeneID 2563) | 3 | 6.39 (active) | 47.9 | 23.1 |
| ABCA4 (GeneID 24) | 1 | 0.653 | 7.56 | 7.76 |
| ABCA4 (GeneID 24) | 2 | 1.05 | 10.3 | 7.84 |
| ABCA4 (GeneID 24) | 3 | 0.8 | 8.6 | 7.65 |
| OTOS (GeneID 150677) | 1 | -1.08 | -4.6 | 2.29 |
| OTOS (GeneID 150677) | 2 | -0.767 | -2.43 | 2.16 |
| OTOS (GeneID 150677) | 3 | -0.382 | 0.278 | 3.17 |
| OR2A25 (GeneID 392138) | 1 | -0.591 | -1.19 | 3.38 |
| OR2A25 (GeneID 392138) | 2 | -0.414 | 0.0523 | 3.54 |
| OR2A25 (GeneID 392138) | 3 | -0.646 | -1.57 | 4.14 |
| CCDC190 (GeneID 339512) | 1 | 0.0525 | 3.34 | 5.13 |
| CCDC190 (GeneID 339512) | 2 | 0.185 | 4.27 | 5.13 |
| CCDC190 (GeneID 339512) | 3 | -0.364 | 0.406 | 4.35 |
